Here are results for four molecules from patent US20080274978A1 (POSTECH FOUNDATION, published 2008).

These are yes or no findings as the source states them, for the method shown. Some binding calls cover weakened binding; strength is not graded here. Sequences can lack the tags named with a protein.

For the assay, the target named is T1, Formyl peptide receptor like 1 (FPRL1) (human, UniProt P25090 1-351).
T1 sequence (looked up): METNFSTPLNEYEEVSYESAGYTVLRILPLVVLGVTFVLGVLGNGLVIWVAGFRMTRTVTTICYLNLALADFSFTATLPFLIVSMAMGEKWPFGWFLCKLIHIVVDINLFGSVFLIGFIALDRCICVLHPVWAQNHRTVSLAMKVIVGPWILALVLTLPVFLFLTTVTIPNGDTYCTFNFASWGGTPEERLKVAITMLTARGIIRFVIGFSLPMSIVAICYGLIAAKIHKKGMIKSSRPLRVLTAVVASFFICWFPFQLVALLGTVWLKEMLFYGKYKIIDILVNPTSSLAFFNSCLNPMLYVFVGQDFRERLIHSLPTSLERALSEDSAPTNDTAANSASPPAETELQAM
Put plainly: displacement of 125I-WKYMVm from FPRL1-expressing RBL-2H3 cells.

For DRWWWW (C-terminal amide (CONH2)) [Asp-Arg-Trp-Trp-Trp-Trp-CONH2 (DRWWWW, DRW^4)], the binding entry is “binds”.

Consider RHWWWW (C-terminal amide (CONH2)) [Arg-His-Trp-Trp-Trp-Trp-CONH2 (RHWWWW, RHW^4)], for which the binding result is listed as “binds”.

With WRWWWW (C-terminal amide (CONH2)) [Trp-Arg-Trp-Trp-Trp-Trp-CONH2 (WRWWWW, WRW^4)], the binding result was “binds”.

As to RRWWWW (C-terminal amide (CONH2)) [Arg-Arg-Trp-Trp-Trp-Trp-CONH2 (RRWWWW, RRW^4)], the binding entry is reported as “binds”.
